Data source: PubChem BioAssay AID602196 (INSERM, 2012)
The deposit covers about 23,000 reagents; this is an unselected part. Over the whole deposit, 455 (2%) are marked active. 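Active includes both protection and sensitisation; some change values fall well beyond the stated -50 to +50 range.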 Reagents against one gene are numbered here. Not stated in the record: the amount of reagent.

- Purpose: 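Knock-downs that protect lung cancer cells from cisplatin or sensitise them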
- System: human A549 lung cancer cells
- Knock-down reagent: siRNA pair against human genes
- Duration: 48 h transfection before cisplatin; time from cisplatin to read-out not stated
- Challenge: cisplatin at a dose killing half of control-siRNA cells; exact dose and duration not given
- Read-out: 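Cisplatin cell death as a shift from the 50% death seen with control siRNA; siRNAs toxic or growth-blocking alone scored 0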
- Direction: two-siRNA summed score (-2 to +2): higher = both siRNAs protect from cisplatin killing; -2 means both sensitise; mean protection from cisplatin (shift in death) and protection from cisplatin (shift in death), siRNA C and protection from cisplatin (shift in death), siRNA D: higher = protection from cisplatin killing
- Hit rule: 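Each siRNA scores 0 if harmful alone by LDH or WST-1, otherwise +1 if it reduces and -1 if it increases cisplatin killing; a gene is active when both siRNAs agree (sum +2 or -2)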
- Meaning of the calls: active = both siRNAs shift cisplatin killing the same way; inactive = no consistent shift, or siRNA harmful alone

gene,reagent no.,two-siRNA summed score (-2 to +2),mean protection from cisplatin (shift in death) (%),"protection from cisplatin (shift in death), siRNA C (%)","protection from cisplatin (shift in death), siRNA D (%)",activity call
EAF2,1,0,5.6,16.7,-5.5,inactive
LOC440997,1,0,1.9,-2.4,6.2,inactive
LOC196266,1,1,44.2,29.8,58.7,inactive
BATF3,1,0,5.5,-2.6,13.5,inactive
SHOX2,1,0,1.5,-2.5,5.5,inactive
FUT4,1,-1,-6.2,-12.7,0.3,inactive
NAMPT,1,2,15.2,15.2,15.2,active
SLC27A3,1,0,2.2,12.1,-7.6,inactive
SELENOI,1,0,0.1,-4.4,4.6,inactive
OR11G2,1,0,-7,0.7,-14.6,inactive
EFR3B,1,0,4.3,-2.3,10.9,inactive
GDF7,1,0,6.2,8.3,4.1,inactive
TSPAN33,1,1,15.7,32.1,-0.8,inactive
ZBTB24,1,1,6.3,3.4,9.1,inactive
VCX3A,1,0,10.4,9.9,10.8,inactive
USPL1,1,0,9.8,8,11.7,inactive
SLAMF9,1,0,2.4,8.5,-3.7,inactive
SCFD2,1,0,0.2,2.7,-2.3,inactive
LOC388709,1,1,11.1,4.2,17.9,inactive
UBR3,1,0,11.1,7.7,14.4,inactive
SHMT1,1,1,8.3,13.5,3.2,inactive
STAG2,1,0,6.5,-0.6,13.6,inactive
YPEL5,1,0,-5.9,-2.6,-9.3,inactive
THRA,1,0,8,0,16.1,inactive
NKAIN2,1,0,-4.5,-3.3,-5.7,inactive
TPH2,1,0,-0.4,8.8,-9.6,inactive
LOC343515,1,0,9.3,1.7,17,inactive
PARP11,1,0,0.3,-9.5,10,inactive
PIK3C2A,1,0,-0.6,-4.4,3.2,inactive
LINC02381,1,1,15.1,20.4,9.8,inactive
PF4,1,-1,-8.1,-31.8,15.6,inactive
ASMT,1,-1,-3.6,-7.6,0.5,inactive
HOXA11,1,0,-13.1,-19.1,-7,inactive
SMAD1,1,0,-11.7,-18.2,-5.2,inactive
ABHD12B,1,0,9.4,-2.7,21.4,inactive
OR5L2,1,0,3.2,6.8,-0.5,inactive
DOCK8-AS1,1,0,-2.3,-5.5,1,inactive
ADI1,1,-1,-6.4,7.3,-20,inactive
LOC442427,1,0,11.9,11.8,12,inactive
WWC2,1,0,5.9,-1.4,13.2,inactive
CYP2S1,1,0,10.3,21.2,-0.6,inactive
LOC441770,1,0,3.3,1,5.5,inactive

The list goes on; the last 8 above are carried over.
gene,reagent no.,two-siRNA summed score (-2 to +2),mean protection from cisplatin (shift in death) (%),"protection from cisplatin (shift in death), siRNA C (%)","protection from cisplatin (shift in death), siRNA D (%)",activity call
ABHD12B,1,0,9.4,-2.7,21.4,inactive
OR5L2,1,0,3.2,6.8,-0.5,inactive
DOCK8-AS1,1,0,-2.3,-5.5,1,inactive
ADI1,1,-1,-6.4,7.3,-20,inactive
LOC442427,1,0,11.9,11.8,12,inactive
WWC2,1,0,5.9,-1.4,13.2,inactive
CYP2S1,1,0,10.3,21.2,-0.6,inactive
LOC441770,1,0,3.3,1,5.5,inactive
RASL10A,1,1,4.5,-6.7,15.8,inactive
SYNM,1,1,3.6,15.9,-8.7,inactive
DNAAF11,1,0,-2.9,0.1,-5.9,inactive
CYSLTR2,1,1,9.2,10.7,7.8,inactive
FMO4,1,-1,-12.2,-24.5,0.1,inactive
BCHE,1,0,-1.2,-1.1,-1.2,inactive
RTN3,1,0,12.4,11.1,13.7,inactive
LOC343930,1,0,6.1,2.9,9.2,inactive
CLEC20A,1,0,8,5,11.1,inactive
HSD11B2,1,0,10.5,17.2,3.8,inactive
YEATS4,1,-1,-13.5,-18.5,-8.5,inactive
LOC439964,1,0,14.5,3,26.1,inactive
RPL6P31,1,0,6.7,11.4,2,inactive
FAT4,1,0,-6.3,-13.4,0.8,inactive
VPS35,1,0,-2.2,-15,10.5,inactive
LOC441840,1,0,11.8,25.6,-2,inactive
KLHDC8B,1,1,4.7,16.3,-6.9,inactive
HTR2B,1,1,7.1,-1,15.3,inactive
SMUG1,1,-1,-18.1,-21.8,-14.3,inactive
GATA4,1,1,10.8,14.4,7.2,inactive
GMDS,1,0,1.9,-2.8,6.6,inactive
KAT14,1,1,4.1,12.7,-4.6,inactive
MLIP,1,0,0.7,4.1,-2.7,inactive
TMPRSS2,1,0,9.3,11.6,7,inactive
FAM168B,1,0,1.2,-5.7,8,inactive
DCDC1,1,0,5,-3.5,13.5,inactive
DCDC1,2,1,20,16.2,23.8,inactive
TPK1,1,0,-3.6,0.2,-7.5,inactive
ZNF672,1,1,3.7,16.4,-9,inactive
ZAP70,1,0,-2.8,1.3,-6.8,inactive
LOC441214,1,0,1.2,5.1,-2.6,inactive
